# Measurements: US20160106864 (published 2016)
# Ends that are not written are not given here.
# Test: Fmoc solid-phase peptide synthesis; MBNA resin
# Conditions: whole synthesis
sequence,measurement,value
GRRRRRRRRRGYKC,final purity (method not given),90% or higher
